This is an account of results in patent US9856294B2 (Commissariat A L'Energie Atomique Et Aux Energies …, priority 2010, dated 2018).

* marks the point of attachment. Trt = c1ccc(C(c2ccccc2)(c2ccccc2)*)cc1; Boc = CC(C)(C)OC(=O)*; OtBu = CC(C)(C)O*

A short description of the data set: general procedure: Fmoc solid-phase peptide synthesis; 2-chlorotrityl chloride resin (substitution 0.4 mmol/g); PyBOP/DIEA. The settings on record: for isolated mass / final HPLC purity / isolated yield: whole synthesis; for final HPLC purity: HPLC analysis; for final HPLC purity / isolated yield: scale of the general procedure 0.202 mmol.

Regarding “H-W(Boc)C(Trt)E(OtBu)PGE(OtBu)C(Trt)D(OtBu)PG-OH”, the isolated mass turned out to be 144 mg, the “final HPLC purity” value came to 98% and the isolated yield amounted to 53% yield.
Taken in the same sequence, the figures for “HArg(Pbf)-Cys(Trt)-Ser(tBu)-Pro-Gly-Ser(tBu)Cys(Trt)-Trp(Boc)Pro-Gly-OH” were 52 mg, 96% and 19% yield.
On to P^3-TRITC, for which, where the note is “conjugation step”, the conjugation yield is 8% yield.
